At least one structure is not confirmed: it was looked up by name or label, or the drawing left a doubt.
Assay: Kinetic study for SPDC reaction (UV monitoring of decrease of diyne 3 with excess benzyl azide)
Type: physicochemical
Conditions: with benzyl azide (4a), 25° C. in methanol

C1#Cc2ccccc2C#Cc2ccccc21 [diyne 3, sym-dibenzo-1,5-cyclooctadiene-3,7-diyne]
second order rate constant for the first cycloaddition in the SPDC reaction: (6.29±0.05 SE)×10^−2 M^−1s^−1

— patent publication US8901312B2, “Cyclic compound, method for producing cyclic compound, and method for modifying biological molecule” (JNC Corporation, priority 2010, dated 2014)
